PubChem BioAssay AID1259308 – NCATS, 2017
Shown is one part, drawn at random, of about 59,000 reagents. About 1,510 of all reagents (2.6%) count as active. 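Calls use total luciferase alone and ignore viability, so some active siRNAs may act by altering cell number.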 Entries without a mark were called inactive. Further read-outs or replicates are left out here.

- Purpose: 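Candidate targets for better recombinant protein yield in mammalian cells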 (primary screen)
- Cell system: human HEK293 embryonic kidney cells stably expressing firefly luciferase (HEK-CMV-Luc2-Hygro)
- Knock-down reagent: single siRNA against human genes, 0.8 pmol siRNA per well
- Timing: 72 h
- Detection: 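Reporter luminescence and viable-cell signal on separate replicate plates, given as percent of non-targeting control and median/MAD z-scores, plus per-cell luciferase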
- Scale: total luciferase, z-score and total luciferase, % of control: higher = more reporter protein produced
- Active means: 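An siRNA counts as active if its total luciferase robust z-score exceeds 3; genes with two or more such siRNAs out of three were retested with fresh siRNAs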
- Calls: active = raised luciferase; inactive = no rise

How did the screen score HBP1 [SID160738194]?
total luciferase, z-score: 0.593; total luciferase, % of control: 93.7

For HBP1 [SID160738195], how do the results read?
total luciferase, z-score: 0.112; total luciferase, % of control: 84.1

How did the screen score HBP1 [SID160738196]?
total luciferase, z-score: 0.0676; total luciferase, % of control: 83.2

What is on record for CCDC92 [SID160734983]?
total luciferase, z-score: -0.644; total luciferase, % of control: 69.1

Which result is listed for CCDC92 [SID160750220]?
total luciferase, z-score: -0.0597; total luciferase, % of control: 80.7

With CCDC92 [SID160750221], how do the results read?
total luciferase, z-score: -1.4; total luciferase, % of control: 54.1

With ABCA17P [SID160770525], what was measured?
total luciferase, z-score: 0.148; total luciferase, % of control: 84.8

Which result is listed for ABCA17P [SID160770526]?
total luciferase, z-score: -0.291; total luciferase, % of control: 76.1

How did the screen score ABCA17P [SID160770527]?
total luciferase, z-score: 0.766; total luciferase, % of control: 97.1

For ANKRD36B [SID160733678], how do the results read?
total luciferase, z-score: 0.606; total luciferase, % of control: 93.9

How did the screen score ANKRD36B [SID160746686]?
total luciferase, z-score: 0.618; total luciferase, % of control: 94.2

For ANKRD36B [SID160746687], what does the deposit list?
total luciferase, z-score: 1.03; total luciferase, % of control: 102

For CRYBA1 [SID160748517], what does the deposit list?
total luciferase, z-score: 4.23 (active); total luciferase, % of control: 166

What did the screen give for CRYBA1 [SID160748526]?
total luciferase, z-score: 1.14; total luciferase, % of control: 105

Which result is listed for CRYBA1 [SID160748537]?
total luciferase, z-score: 0.472; total luciferase, % of control: 91.3

With MET [SID160777171], what does the deposit list?
total luciferase, z-score: -0.518; total luciferase, % of control: 71.6

For MET [SID160777172], how do the results read?
total luciferase, z-score: 1.04; total luciferase, % of control: 103

How did the screen score MET [SID160777173]?
total luciferase, z-score: -0.0112; total luciferase, % of control: 81.7

For CARD16 [SID160730543], what was measured?
total luciferase, z-score: -0.494; total luciferase, % of control: 72.1

For CARD16 [SID160754945], what does the deposit list?
total luciferase, z-score: 0.188; total luciferase, % of control: 85.6

For CARD16 [SID160754946], how do the results read?
total luciferase, z-score: -1.26; total luciferase, % of control: 56.7

Ordered by “total luciferase, % of control” (descending): some entries from above
MET [SID160777172] — total luciferase, z-score: 1.04; total luciferase, % of control: 103
MET [SID160777173] — total luciferase, z-score: -0.0112; total luciferase, % of control: 81.7
MET [SID160777171] — total luciferase, z-score: -0.518; total luciferase, % of control: 71.6

Continued:
Which result is listed for LRRC39 [SID160756632]?
total luciferase, z-score: 1.02; total luciferase, % of control: 102

With LRRC39 [SID160756633], what was measured?
total luciferase, z-score: 0.674; total luciferase, % of control: 95.3

With LRRC39 [SID160756634], how do the results read?
total luciferase, z-score: 1.14; total luciferase, % of control: 105

For GALK1 [SID160768952], what does the deposit list?
total luciferase, z-score: -1.1; total luciferase, % of control: 60.1

For GALK1 [SID160768963], what was measured?
total luciferase, z-score: -0.93; total luciferase, % of control: 63.4

With GALK1 [SID160768970], how do the results read?
total luciferase, z-score: 0.303; total luciferase, % of control: 87.9

What is on record for EAF2 [SID160744492]?
total luciferase, z-score: 0.899; total luciferase, % of control: 99.8

With EAF2 [SID160744493], what was measured?
total luciferase, z-score: 0.297; total luciferase, % of control: 87.8

For EAF2 [SID160744494], what was measured?
total luciferase, z-score: -1.04; total luciferase, % of control: 61.3

What did the screen give for RBM15B [SID160739240]?
total luciferase, z-score: -0.14; total luciferase, % of control: 79.1

For RBM15B [SID160739241], how do the results read?
total luciferase, z-score: -1.31; total luciferase, % of control: 55.8

With RBM15B [SID160739242], what does the deposit list?
total luciferase, z-score: -1.94; total luciferase, % of control: 43.4
